Data from PMC7295033.
These are yes or no findings as the source states them, for the method shown. Binding seen in cells or lysates may run through a third protein. These calls come from enrichment with a bait or labelling near it, and not all partners need be listed.

The chains behind the UniProt entries cited, without tags or fusion partners. Residues count along the entry.
UniProt Q60857: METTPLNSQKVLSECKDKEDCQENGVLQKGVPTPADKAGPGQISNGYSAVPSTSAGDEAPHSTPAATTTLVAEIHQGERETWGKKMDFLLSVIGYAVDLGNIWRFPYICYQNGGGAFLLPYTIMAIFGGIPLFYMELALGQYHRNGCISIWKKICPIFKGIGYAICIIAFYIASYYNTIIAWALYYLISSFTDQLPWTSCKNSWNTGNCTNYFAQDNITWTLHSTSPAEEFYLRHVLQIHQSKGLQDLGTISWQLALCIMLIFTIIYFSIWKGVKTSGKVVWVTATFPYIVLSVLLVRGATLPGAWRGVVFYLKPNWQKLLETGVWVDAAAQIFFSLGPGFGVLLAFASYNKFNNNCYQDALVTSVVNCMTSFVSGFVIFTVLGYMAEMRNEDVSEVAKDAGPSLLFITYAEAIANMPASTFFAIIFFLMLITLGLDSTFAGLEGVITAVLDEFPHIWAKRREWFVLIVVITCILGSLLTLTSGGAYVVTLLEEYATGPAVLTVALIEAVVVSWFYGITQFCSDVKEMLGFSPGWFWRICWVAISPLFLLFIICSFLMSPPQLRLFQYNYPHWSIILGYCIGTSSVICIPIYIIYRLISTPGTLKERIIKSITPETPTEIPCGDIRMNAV
UniProt Q3UHD9: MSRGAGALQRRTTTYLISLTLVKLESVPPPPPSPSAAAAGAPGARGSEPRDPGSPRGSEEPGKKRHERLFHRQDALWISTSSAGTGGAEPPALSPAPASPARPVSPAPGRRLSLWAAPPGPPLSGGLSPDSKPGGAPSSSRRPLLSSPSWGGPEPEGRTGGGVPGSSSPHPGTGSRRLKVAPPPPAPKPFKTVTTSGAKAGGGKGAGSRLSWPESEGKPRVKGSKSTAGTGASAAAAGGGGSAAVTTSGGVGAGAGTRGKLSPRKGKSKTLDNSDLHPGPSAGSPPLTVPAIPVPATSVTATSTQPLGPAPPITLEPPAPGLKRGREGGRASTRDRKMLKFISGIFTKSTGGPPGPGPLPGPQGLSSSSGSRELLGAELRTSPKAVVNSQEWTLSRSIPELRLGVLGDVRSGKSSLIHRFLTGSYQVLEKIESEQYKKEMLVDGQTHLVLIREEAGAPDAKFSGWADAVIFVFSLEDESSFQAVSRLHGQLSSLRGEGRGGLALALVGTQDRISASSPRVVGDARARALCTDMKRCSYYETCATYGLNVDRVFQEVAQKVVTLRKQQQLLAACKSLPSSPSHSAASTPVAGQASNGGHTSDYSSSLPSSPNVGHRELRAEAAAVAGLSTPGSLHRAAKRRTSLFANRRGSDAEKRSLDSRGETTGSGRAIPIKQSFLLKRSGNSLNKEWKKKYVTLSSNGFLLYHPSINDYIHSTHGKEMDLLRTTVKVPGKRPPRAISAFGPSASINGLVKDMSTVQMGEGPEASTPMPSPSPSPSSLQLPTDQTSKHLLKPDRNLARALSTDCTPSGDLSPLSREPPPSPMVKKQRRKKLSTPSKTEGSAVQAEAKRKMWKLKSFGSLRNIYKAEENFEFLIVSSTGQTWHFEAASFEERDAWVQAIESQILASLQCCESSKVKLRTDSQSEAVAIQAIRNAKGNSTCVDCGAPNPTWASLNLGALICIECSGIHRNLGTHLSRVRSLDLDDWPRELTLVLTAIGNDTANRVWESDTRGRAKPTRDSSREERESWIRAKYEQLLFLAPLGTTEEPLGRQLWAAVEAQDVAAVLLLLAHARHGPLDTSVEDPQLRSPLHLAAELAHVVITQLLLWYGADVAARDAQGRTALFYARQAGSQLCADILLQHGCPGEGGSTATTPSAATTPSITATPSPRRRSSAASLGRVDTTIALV
UniProt Q04899: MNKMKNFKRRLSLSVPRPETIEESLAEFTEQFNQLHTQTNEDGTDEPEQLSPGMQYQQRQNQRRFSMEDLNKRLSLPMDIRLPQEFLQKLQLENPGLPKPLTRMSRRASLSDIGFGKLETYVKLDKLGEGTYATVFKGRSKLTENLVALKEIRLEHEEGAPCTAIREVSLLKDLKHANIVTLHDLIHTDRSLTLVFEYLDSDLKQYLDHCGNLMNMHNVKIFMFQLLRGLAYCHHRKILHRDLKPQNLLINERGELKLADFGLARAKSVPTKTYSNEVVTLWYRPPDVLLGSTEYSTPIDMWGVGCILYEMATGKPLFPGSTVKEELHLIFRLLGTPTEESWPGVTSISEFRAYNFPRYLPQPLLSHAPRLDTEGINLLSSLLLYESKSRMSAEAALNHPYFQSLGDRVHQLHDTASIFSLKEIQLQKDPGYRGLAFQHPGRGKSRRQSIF
UniProt Q60737: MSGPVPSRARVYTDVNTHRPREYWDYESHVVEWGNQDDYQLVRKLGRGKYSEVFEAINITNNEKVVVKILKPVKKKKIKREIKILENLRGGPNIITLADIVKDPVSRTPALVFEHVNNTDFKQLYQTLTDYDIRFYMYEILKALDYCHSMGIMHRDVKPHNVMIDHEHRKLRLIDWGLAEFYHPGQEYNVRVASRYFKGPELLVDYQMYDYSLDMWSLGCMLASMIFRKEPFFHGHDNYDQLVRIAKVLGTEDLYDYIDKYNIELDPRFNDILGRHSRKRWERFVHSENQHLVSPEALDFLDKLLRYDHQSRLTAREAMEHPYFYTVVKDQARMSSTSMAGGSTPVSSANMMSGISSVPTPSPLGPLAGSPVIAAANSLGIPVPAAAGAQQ
UniProt Q80UP3: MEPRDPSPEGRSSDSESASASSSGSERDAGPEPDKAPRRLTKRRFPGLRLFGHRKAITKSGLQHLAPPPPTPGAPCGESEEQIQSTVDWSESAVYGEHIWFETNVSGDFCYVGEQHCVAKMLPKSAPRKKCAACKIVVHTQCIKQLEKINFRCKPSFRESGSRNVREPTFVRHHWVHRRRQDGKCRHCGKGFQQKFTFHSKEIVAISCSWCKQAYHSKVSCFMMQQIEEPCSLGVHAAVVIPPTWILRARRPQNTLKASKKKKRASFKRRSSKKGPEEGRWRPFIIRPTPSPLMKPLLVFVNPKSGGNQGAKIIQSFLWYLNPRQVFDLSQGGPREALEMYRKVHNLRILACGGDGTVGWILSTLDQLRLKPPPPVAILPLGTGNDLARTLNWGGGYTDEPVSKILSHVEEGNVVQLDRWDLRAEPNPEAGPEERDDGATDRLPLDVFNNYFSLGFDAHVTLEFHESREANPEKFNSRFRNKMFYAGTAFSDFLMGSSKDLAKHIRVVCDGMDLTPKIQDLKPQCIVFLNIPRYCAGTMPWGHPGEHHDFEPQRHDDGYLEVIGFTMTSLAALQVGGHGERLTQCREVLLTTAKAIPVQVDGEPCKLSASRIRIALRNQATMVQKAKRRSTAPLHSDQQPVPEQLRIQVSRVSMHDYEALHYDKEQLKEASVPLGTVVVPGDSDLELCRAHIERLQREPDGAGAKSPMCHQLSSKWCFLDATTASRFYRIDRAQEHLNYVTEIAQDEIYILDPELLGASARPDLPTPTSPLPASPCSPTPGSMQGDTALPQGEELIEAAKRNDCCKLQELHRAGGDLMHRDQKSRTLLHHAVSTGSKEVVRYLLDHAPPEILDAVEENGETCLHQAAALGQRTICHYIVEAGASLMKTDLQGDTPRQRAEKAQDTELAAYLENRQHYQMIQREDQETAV
UniProt Q9Z2W8, residues 21-902: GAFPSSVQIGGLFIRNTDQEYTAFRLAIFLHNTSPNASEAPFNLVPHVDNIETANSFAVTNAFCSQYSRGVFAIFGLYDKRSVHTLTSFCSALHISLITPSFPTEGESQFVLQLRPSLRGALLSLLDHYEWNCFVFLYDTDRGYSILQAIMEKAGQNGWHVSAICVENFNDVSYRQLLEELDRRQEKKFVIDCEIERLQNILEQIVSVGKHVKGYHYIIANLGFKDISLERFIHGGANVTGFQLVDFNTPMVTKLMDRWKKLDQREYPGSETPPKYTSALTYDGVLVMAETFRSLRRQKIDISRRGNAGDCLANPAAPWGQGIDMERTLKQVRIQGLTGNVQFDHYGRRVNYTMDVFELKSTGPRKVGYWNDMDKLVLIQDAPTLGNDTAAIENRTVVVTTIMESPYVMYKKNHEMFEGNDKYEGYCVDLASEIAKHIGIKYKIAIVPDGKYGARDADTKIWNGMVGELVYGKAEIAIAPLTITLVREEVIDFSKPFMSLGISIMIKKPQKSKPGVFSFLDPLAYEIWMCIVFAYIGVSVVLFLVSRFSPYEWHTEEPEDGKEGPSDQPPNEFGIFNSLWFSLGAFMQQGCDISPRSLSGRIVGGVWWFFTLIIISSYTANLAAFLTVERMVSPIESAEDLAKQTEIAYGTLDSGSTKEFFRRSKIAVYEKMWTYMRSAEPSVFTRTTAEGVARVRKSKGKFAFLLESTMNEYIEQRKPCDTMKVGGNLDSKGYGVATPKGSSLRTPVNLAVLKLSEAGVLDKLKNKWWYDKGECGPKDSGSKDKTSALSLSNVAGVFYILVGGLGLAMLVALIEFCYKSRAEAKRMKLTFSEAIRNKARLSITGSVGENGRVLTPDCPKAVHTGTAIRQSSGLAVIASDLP
UniProt Q9WVQ1: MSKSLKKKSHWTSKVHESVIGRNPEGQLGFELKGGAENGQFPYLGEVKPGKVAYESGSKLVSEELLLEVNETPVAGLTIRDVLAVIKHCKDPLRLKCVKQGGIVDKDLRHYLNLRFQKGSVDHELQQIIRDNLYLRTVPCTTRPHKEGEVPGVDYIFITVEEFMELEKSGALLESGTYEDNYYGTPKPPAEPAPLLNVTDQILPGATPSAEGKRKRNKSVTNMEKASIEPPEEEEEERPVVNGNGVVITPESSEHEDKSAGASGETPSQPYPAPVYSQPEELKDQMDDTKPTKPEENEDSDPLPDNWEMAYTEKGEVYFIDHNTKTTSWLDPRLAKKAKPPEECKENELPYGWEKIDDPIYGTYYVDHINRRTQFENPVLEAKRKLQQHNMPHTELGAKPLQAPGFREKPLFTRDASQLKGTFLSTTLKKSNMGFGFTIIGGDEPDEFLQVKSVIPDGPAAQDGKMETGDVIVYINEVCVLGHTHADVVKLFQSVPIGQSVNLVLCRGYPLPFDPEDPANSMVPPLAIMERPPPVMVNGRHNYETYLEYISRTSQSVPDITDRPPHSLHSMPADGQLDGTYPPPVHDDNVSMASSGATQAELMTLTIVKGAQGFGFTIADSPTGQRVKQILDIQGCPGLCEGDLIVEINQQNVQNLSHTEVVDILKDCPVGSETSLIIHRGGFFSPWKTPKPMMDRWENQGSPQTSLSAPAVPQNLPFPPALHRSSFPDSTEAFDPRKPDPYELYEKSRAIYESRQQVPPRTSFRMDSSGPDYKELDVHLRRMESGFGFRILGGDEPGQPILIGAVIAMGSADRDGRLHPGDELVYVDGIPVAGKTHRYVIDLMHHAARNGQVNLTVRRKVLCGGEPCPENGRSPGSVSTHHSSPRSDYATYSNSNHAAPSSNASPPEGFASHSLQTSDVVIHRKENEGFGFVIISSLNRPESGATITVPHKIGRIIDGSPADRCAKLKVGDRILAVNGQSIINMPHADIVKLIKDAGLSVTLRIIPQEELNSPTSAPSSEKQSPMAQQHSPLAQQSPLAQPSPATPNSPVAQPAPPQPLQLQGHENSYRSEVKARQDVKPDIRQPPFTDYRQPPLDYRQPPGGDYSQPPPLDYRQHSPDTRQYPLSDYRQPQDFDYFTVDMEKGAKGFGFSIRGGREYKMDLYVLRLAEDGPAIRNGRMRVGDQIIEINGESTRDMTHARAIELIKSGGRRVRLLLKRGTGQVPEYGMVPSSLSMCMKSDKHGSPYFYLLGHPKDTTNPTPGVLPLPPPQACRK
UniProt P07934: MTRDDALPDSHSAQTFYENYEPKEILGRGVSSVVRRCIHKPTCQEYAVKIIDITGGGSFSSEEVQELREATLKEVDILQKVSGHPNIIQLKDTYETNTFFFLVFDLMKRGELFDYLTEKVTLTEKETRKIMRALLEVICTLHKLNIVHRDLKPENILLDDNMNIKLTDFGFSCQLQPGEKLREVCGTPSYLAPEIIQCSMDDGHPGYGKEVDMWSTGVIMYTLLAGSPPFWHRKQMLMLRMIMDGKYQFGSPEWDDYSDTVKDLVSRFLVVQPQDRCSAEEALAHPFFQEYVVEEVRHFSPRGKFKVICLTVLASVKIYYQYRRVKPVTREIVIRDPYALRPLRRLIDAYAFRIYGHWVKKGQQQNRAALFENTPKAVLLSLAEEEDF
UniProt P12367: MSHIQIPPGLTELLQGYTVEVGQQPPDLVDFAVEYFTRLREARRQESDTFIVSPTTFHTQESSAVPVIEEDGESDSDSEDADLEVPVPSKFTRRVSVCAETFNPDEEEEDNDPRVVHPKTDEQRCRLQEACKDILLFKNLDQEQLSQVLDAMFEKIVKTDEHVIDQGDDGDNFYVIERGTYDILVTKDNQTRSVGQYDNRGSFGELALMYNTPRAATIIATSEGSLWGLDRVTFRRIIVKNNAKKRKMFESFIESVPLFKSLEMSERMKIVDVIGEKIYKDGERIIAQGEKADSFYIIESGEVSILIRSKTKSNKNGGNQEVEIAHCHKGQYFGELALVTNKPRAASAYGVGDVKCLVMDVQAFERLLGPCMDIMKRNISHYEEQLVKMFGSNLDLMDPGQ

B1: Abcd3 (protein, UniProt P55096 1-659)
chain: MAAFSKYLTARNTSLAGAAFLLLCLLHKRRRALGLHGKKSGKPPLQNNEKEGKKERAVVDKVFLSRLSQILKIMVPRTFCKETGYLLLIAVMLVSRTYCDVWMIQNGTLIESGIIGRSSKDFKRYLFNFIAAMPLISLVNNFLKYGLNELKLCFRVRLTRYLYEEYLQAFTYYKMGNLDNRIANPDQLLTQDVEKFCNSVVDLYSNLSKPFLDIVLYIFKLTSAIGAQGPASMMAYLLVSGLFLTRLRRPIGKMTIMEQKYEGEYRYVNSRLITNSEEIAFYNGNKREKQTIHSVFRKLVEHLHNFIFFRFSMGFIDSIIAKYVATVVGYLVVSRPFLDLAHPRHLHSTHSELLEDYYQSGRMLLRMSQALGRIVLAGREMTRLAGFTARITELMQVLKDLNHGRYERTMVSQQEKGIEGAQASPLVPGAGEIINTDNIIKFDHVPLATPNGDILIQDLSFEVRSGANVLICGPNGCGKSSLFRVLGELWPLFGGRLTKPERGKLFYVPQRPYMTLGTLRDQVIYPDGKEDQKKRGISDQVLKEYLDNVQLGHILEREGGWDSVQDWMDVLSGGEKQRMAMARLFYHKPQFAILDECTSAVSVDVEDYIYSHCRKVGITLFTVSHRKSLWKHHEYYLHMDGRGNYEFKKITEDTVEFGS
B2: Arhgap23 (protein, UniProt Q69ZH9 1-1483)
chain: MNGVAFCLVGIPPRPEPRPPQLPLGPRDGCSSGRPLPWPGPRTLLLRKSLQDGFGFTLRHFIVYPPESAVHCILKEEENGGRGGGPSPRHRLEPMDTIFVKNVKDGGPAHRAGLRTGDRLVKVNGESIIGKTYSQVIGLIQNSDDTLELSIMPKDEDILQLAYSQDAYLKGNEPYSGEARSIPEPPPLCYPRKTYAPPTRAPAWATMVPEPISALPPDPRSPAAWSDPGSRVPSATRAHLDNSSLGMSQPRPSPGAFPHLPSESRTPRAFPEPGSRVLPSRLECQQALSHWLSNQIPRRAGERRCPAMPPRARSASQDRLEDVTTHHPWPCSTSQDALSQLGQEGWHRARSDDYLSRATRSAEALGPGALVSPRLERCGWASQRPSARTSACPSRDLTQAPPPSGLQGLDDIGYIGYRSYSPSFQRRTGLLHALSFRDSPFGGLPTFSLAQSPASFPPEASEPPRVVRPDPSTRALEPPAEDHRDEVVLRQKPPTGRKVQLTPARQMNLGFGDESPEPEARGERLGRKVAPLATTEDSLASIPFIDEPTSPSIDLQAKHVPASAVVSSAMNSAPVLGTSPSSPTFTFALSRHYSQDCSSIKAGRRSSYLLAITTERSKSCDDGLNTFRDEGRVLRRLPSRVPSLRVLRSFFTDGSLDSWGTSEDADAPSKRHSTSDLSDATFSDIRREGWLYYKQILTKKGKKAGGGLRQWKRVYAVLRARSLSLSKERREPGPAAAGAAAAGAGEDEAAPVCIGSCLVDISYSETKRRHVFRLTTADFCEYLFQAEDRDDMLGWIRAIRENSRAEGEDPGCANQALISKKLNDYRKVSHSSGPKADSSPKGSRGLGGLKSEFLKQTAVRGLRTQEQPPGSKEDSVAAPKTPWGINIIKKNKKAAPRAFGIRLEECQPATENQRVPLIVAACCRIVEARGLESTGIYRVPGNNAVVSSLQEQLNRGPSDINLQDERWQDLNVISSLLKAFFRKLPEPLFTDDKYNDFIEANRIEDSRERMKTLRKLIRDLPGHYYETLKFLVGHLKTIADHSEKNKMEPRNLALVFGPTLVRTSEDNMTDMVTHMPDRYKIVETLIQHSDWFFSDDEDKGERTPVDDKEPQSVPNIEYLLPNIGRTVPPSDPGSDSTTCSSAKSKGSWVPKKEPYAREMLAISFISAVNRKRKKRREARGLGSSTDDDSEQEAHKAAVGTQEPPEGQLPGPAAEEAPGRLSPPTAPDERPAADTRSIVSGYSTLSTMDRSVCSGTGGRRAGAGDEADDERSELSHVETDTEGGAGPGGRLSRRPSFSSHHLMPCDTLARRRLSRSRAEAEGPGAGTARACPRGPEPPGSASSSSQESLRPPAAAPALGSRPSRVEALRLRLRGTADDMLAVRLRRPLSPETRRRRSSWRRHTVVVQSPLTDLNFNEWKELGGGGPQESVGVRPHSDNKDSGLSSLESTKARASSAASLPSGDLGALQGLPQRRSAAARLHQCL

What follows are molecules tested against serotonin transporter, wildtype (WT SERT) (mouse (endogenous in midbrain synaptosomes)) (UniProt Q60857) (assay: affinity purification with mass spectrometry; SERT immunoprecipitated with C-terminal anti-SERT serum #48 cross-linked to protein A Dynabeads from midbrain synaptosomes (lysed in PBS + 0.7% DDM, 4°C) of WT, SERT Ala56 and SERT KO (negative control) mice; in-gel tryptic digestion, 8-step MudPIT LC-MS/MS; label-free quantification).

| binding | Molecule |
| --- | --- |
| binds | Agap2 (from UniProt Q3UHD9 1-1186) |
| binds | Arhgap21 (from UniProt Q6DFV3 1-1945) |
| binds | Arhgap32 (from UniProt Q811P8 1-2089) |
| binds | Arpc5l (from UniProt Q9D898 1-153) |
| binds | Bmp2k (from UniProt Q91Z96 1-1138) |
| binds | Cdc42bpb (from UniProt Q7TT50 1-1713) |
| binds | Cdk18 (from UniProt Q04899 1-451) |
| binds | Csnk1a1 (from UniProt Q8BK63 1-337) |
| binds | Csnk2a1 (from UniProt Q60737 1-391) |
| binds | Dgkz (from UniProt Q80UP3 1-929) |
| binds | Gria3 (from UniProt Q9Z2W9 23-888) |
| binds | Gria4 (from UniProt Q9Z2W8 21-902) |
| binds | Macf1 (from UniProt Q9QXZ0 1-7354) |
| binds | Magi2 (from UniProt Q9WVQ1 1-1275) |
| binds | Mark3 (from UniProt Q03141 1-753) |
| binds | Mark4 (from UniProt Q8CIP4 1-752) |

| binding | Molecule |
| --- | --- |
| binds | Mast1 (from UniProt Q9R1L5 1-1570) |
| binds | Mitogen-activated protein kinase 3 (from UniProt Q63844 1-380) |
| binds | Mthfd1 (from UniProt Q922D8 1-935) |
| binds | Myo9a (from UniProt Q8C170 1-2542) |
| binds | Myo18a (from UniProt Q9JMH9 1-2050) |
| binds | NMDA receptor 2 (Grin2a) (from UniProt P35436 23-1464) |
| binds | Phkg1 (from UniProt P07934 1-388) |
| binds | Ppp1ca (from UniProt P62137 1-330) |
| binds | Prkar2a (from UniProt P12367 1-401) |
| binds | SH3 and multiple ankyrin repeat domains protein 3 (from UniProt Q4ACU6 1-1730) |
| binds | Sipa1l1 (from UniProt Q8C0T5 1-1782) |
| binds | Srgap3 (from UniProt Q812A2 1-1099) |
| binds | calcium/calmodulin-dependent protein kinase type II subunit beta (from UniProt P28652 1-542) |
| binds | catalytic C subunit of the PP2A holoenzyme (from UniProt P63330) |
| binds | B1 |
| binds | B2 |
